Measurements taken from paper PMC10163288.
Substitutions are numbered along the chain they refer to. The list shows a part of the results.

B1: il2ra_site1_2b5i_sap_12_mot_HHH_b2_08262_af2_000000095_0001_1_15_H_._HHH_b2_06947_af2_0001_0000200004_0000001_0_0001_af2pred_dldesign_0_af2pred (protein)
chain: SSSSSLRREAIETVEALLKAGKTEEAKKVVDKLREYAEEKKDPALERLVEFLEEAIADALESSSS
B2: il2ra_site1_1z92_sap_13_mot_HHH_b1_01467_000000208_0001_22_39_H_._HHH_b2_01876_af2_0001_0001100084_0000001_0_0001_af2pred_0001_af2pred (protein)
chain: SSSSSSEEELEERVSELFTEAARIRDREEVRRLLEEALELAREANDPKLAEQVERFLKLLSSSSS
B3: il2ra_site2_2erj_sap_31_mot_HHH_b1_00941_000000060_0001_45_58_H_._HHH_b1_07953_0001_0000500014_0000001_0_0001 (protein)
chain: SSSSSDEEEIRRRVEELLERVEEIPDLHEIYRLLNEALRLAAELNDHELLKLIRELLERHSSSSS
B4: il2ra_site2_2erj_normal_mot_HHH_b2_01031_af2_000000243_0001_19_35_H_._HHH_b1_06980_0001_0000600020_0000001_0 (protein)
chain: SSSSDVEELLEEIEELLRRGDEERAEKLLHEAAELAFERRDFELFSEVAELAHLIARLEVSSSSS
B5: il2ra_site2_2erj_sap_24_mot_HHH_b2_08311_000000151_0001_42_56_H_._HHH_b2_04441_af2_0001_0000200011_0000001_0_0001 (protein)
chain: SSSSDELRKLFELANRVLHLLARGDEEEVKEVLEELERLAKELDSPNAEEIAEHLKRLVDSSSSS
B6: il2ra_site1_2b5i_normal_mot_HHH_b2_06044_000000134_0001_1_20_H_._HHH_b2_00272_af2_0001_0000100003_0000001_0_af2pred_dldesign_0_af2pred (protein)
chain: SSSSSDPHQEVWDLFKKALELWRQGKKEEAKKLLEEALKVAEKLKDEVAVADIKRFLELLSSSSS
B7: il2ra_site1_1z92_sap_21_mot_3afbd42359c492d9a5ba12d7e5b15de5_0001_000000167_0001_17_33_H_._HHH_b2_00708_af2_0001_0000100006_0000001_0_0001 (protein)
chain: DEEIQRLLREILEEVLGDPELAERELRIIEELAGGDPRRVARIVERLLRAAGDPEATKKVEELLK
B8: il2ra_site2_2erj_sap_9_mot_HHH_b1_07584_000000201_0001_42_55_H_._HHH_b1_04993_af2_0001_0000100002_0000001_0_0001 (protein)
chain: NDEAMVELFIEYVAERAGIPSIEVSVSNGEIEVRINGNDEAARRVEESARHVAKALGLEVEVEVE
B9: il2ra_site2_2erj_sap_25_mot_HHH_b1_08106_000000120_0001_20_37_H_._HHH_b2_06103_0001_0000100007_0000001_1_0001 (protein)
chain: SSSDEEEEELRELLEEVEKLIKEGNPEEAAEVLNKALHLAIRLNDVEVYQLARELYELLDNSSSS
B10: il2ra_site1_1z92_normal_mot_07d2d8a42fb0c6931fb03626c2a0eeb8_0001_000000072_0001_36_50_H_._d81e0e3f09cf5c77236f12665c7b432d_0001_0001_0000500049_0000001_0_af2pr … (protein)
chain: DDFAVEQIIRKLEKGNPRAAKRLLEKLAKLAGIPPEEIEEVLREVEELLKRDPEEAKEFLKRILS
B11: il2ra_site2_2erj_sap_24_mot_4428453eb85d3cbdb794fa6b82d21c19_0001_000000044_0001_14_30_H_._HHH_b2_00328_0001_0000300019_0000001_0_0001 (protein)
chain: SSSSDELHRLYELANEILHALSRGDEELVEELLEELEKLAEEADSRVAKENVEALRKHLDSSSSS
B12: il2ra_site2_3nfp_sap_13_mot_HHH_b1_06513_000000089_0001_42_55_H_._HHH_b2_04995_0001_0000100014_0000001_0_0001_af2pred_0001_af2pred (protein)
chain: SSSSDRRFERAVKTALRLARELSKEDPELAKEALHFAESVARMGNDPELEELVEEVQEELDSSSS
B13: il2ra_site2_3nfp_normal_mot_HHH_b2_08245_af2_000000201_0001_41_55_H_._HHH_b2_03234_af2_0001_0000100013_0000001_1_af2pred_0001_1_af2pred_swapped (protein)
chain: SSSSDEEEEAEEEVREALKRGDDERARRVVRELALEAAEKNDHELFALASELLELILKLERSSSS
B14: il2ra_site2_3nfp_normal_mot_HHH_b2_06897_000000042_0001_40_57_H_._HHH_b1_01654_0001_0000300026_0000001_0 (protein)
chain: SSSSDREEELKELLEELERLVEEGDPEEVKRLAREISELVYKYNDHEAFALLNEILARFFKSSSS
B15: il2ra_site2_2erj_normal_mot_HHH_b1_06078_000000236_0001_23_39_H_._HHH_b2_02522_0001_0000400024_0000001_0 (protein)
chain: SSSSDTFEEFAEEVERLARQLEERGDPEQARKAVESALFYAKALNSEEAEEILRELLEELSSSSS
B16: il2ra_site1_2b5i_normal_mot_HHH_b2_04910_000000118_0001_1_19_H_._HHH_b2_06534_0001_0000200010_0000001_0_af2pred_0001_af2pred_1 (protein)
chain: SSSSSTKELRELLREANELFHNGNPEEAEKVLEEAEKLAEELGSRSARRLVEKMLELLRKSSSSS
B17: il2ra_site2_3nfp_sap_17_mot_HHH_b2_03068_000000215_0001_43_56_H_._HHH_b1_00872_0001_0000600027_0000001_0_0001 (protein)
chain: SSSDETKERVEELLREVEKLIEEGNEEEAERVLLEAALVASEGRDREAFMKVNELLARLARSSSS
B18: il2ra_site1_2b5i_normal_mot_a7d4ab743ae57deeac5d741f7278d18b_0001_af2_000000162_0001_36_49_H_._HHH_b2_04392_af2_0001_0000400026_0000001_0_af2pred_dldesign_0_af2 … (protein)
chain: SSSSSVLARKILKLAKKSMRRALAEGDEAAAADVTAAALAELRALGDEAAVAALEAFAASLSSSS
B19: il2ra_site2_2erj_normal_mot_HHH_b2_02500_af2_000000175_0001_19_35_H_._HHH_b1_03967_0001_0000200020_0000001_0 (protein)
chain: SSSSSDLLERAYELADLLLHLVSRNDREEFEEISREFEEIVERLQSENAREILENLEEELSSSSS
B20: il2ra_site1_1z92_sap_15_mot_HHH_b2_07916_000000165_0001_23_39_H_._HHH_b2_01633_af2_0001_0000200013_0000001_0_0001_af2pred_0001_af2pred_1 (protein)
chain: SSSSSSDELEEIVREIVEEFGLSEEDEKLLERDAEHAEKNGISDKSIERVLRDAAKRLSSSSSSS
B21: il2ra_site1_2b5i_sap_17_mot_HHH_b1_01540_000000292_0001_42_56_H_._HHH_b2_02924_af2_0001_0000200025_0000001_0_0001_af2pred_dldesign_0_af2pred (protein)
chain: SPEELLARLEEEYKDNPVAQEFINALRTLYEHFGDPELAIRSLLKLAKKAGDEEIAALAERALLE
B22: il2ra_site2_2erj_sap_20_mot_HHH_b2_06646_af2_000000081_0001_19_36_H_._ems_3hM_1437_0001_0000300025_0000001_0_0001 (protein)
chain: SSSSSHEEEVEELLEKAKEAYERGDLHLVYRLMVEALRVASEHQDDELQREIAEFVEELSSSSSS
B23: il2ra_site1_3nfp_normal_mot_HHH_b1_06312_000000077_0001_1_18_H_._HHH_b2_05775_af2_0001_0000100005_0000001_0_af2pred_0001_af2pred (protein)
chain: SSSSSSVHELRRLLEEALRLFRNGDPEEAEKVLEQAREIAEELGSELALRLVELAKKLVSSSSSS
B24: il2ra_site2_3nfp_sap_13_mot_HHH_b1_04644_af2_000000261_0001_42_57_H_._HHH_b2_04983_af2_0001_0000500031_0000001_0_0001 (protein)
chain: B14 chain with K30R, Y41W, L51A, R58K, F59H, F60Y, K61R
B25: il2ra_site1_1z92_sap_13_mot_HHH_b1_00697_000000055_0001_1_18_H_._HHH_b2_06296_0001_0000600021_0000001_0_0001 (protein)
chain: DEEDALRLAAEIAAKAAGVDSFEVEVSNGKLTLTVEGDEHLAEVIRKAVERFFEFFGVDVEVTYE
B26: il2ra_site1_1z92_sap_22_mot_HHH_b1_01245_000000029_0001_23_39_H_._HHH_b1_02889_af2_0001_0000100004_0000001_0_0001_af2pred_0001_af2pred (protein)
chain: ADEETVREHVESFAKFAGVPSVEVTSENGKFSVELEGDDDHARSAAKLIEKSAKVAGIDLEVEIE
B27: il2ra_site2_2erj_sap_22_mot_HHH_b2_07139_000000086_0001_40_57_H_._HHH_b2_03099_0001_0000300023_0000001_0_0001 (protein)
chain: SSSSTDEVRELFEEAHRLFKEGNEEELRELLEEVRKLAEELNDPALRALVRFLELAIKAFSSSSS
B28: il2ra_site2_2erj_normal_mot_HHH_b1_01197_000000128_0001_38_49_H_._HHH_b1_08340_0001_0000900033_0000001_0 (protein)
chain: SSSSDELEERIRELLEELEKLVKEGDLARVQEVAQEIAELLRELGDPELAKELNRLLQEAMSSSS
B29: il2ra_site2_3nfp_normal_mot_0136b98644bc9a8eb58b95019b738ebb_0001_1_000000071_0001_1_13_H_._HHH_b1_04998_0001_0000800011_0000001_0_af2pred_0001_af2pred_1 (protein)
chain: SSSSSDEVAELFRKVAERARKLTDPELQKQVLLLLAQAFLLLEEGNPEEAEKLLEEALELSSSSS
B30: il2ra_site2_3nfp_normal_mot_HHH_b2_04451_000000238_0001_21_37_H_._HHH_b2_06904_0001_0000100004_0000001_0 (protein)
chain: SSSSSSDEERIEELLELVEEIDDQFERLRVLLEASKLAAELGDEELAREVLRLFAEIQSSSSSSS
B31: il2ra_site2_3nfp_sap_17_mot_73f63e3ba0c5fbd29b02c38bc3203c89_0001_1_000000101_0001_17_33_H_._HHH_b1_05402_0001_0000200013_0000001_0_0001_af2pred_0001_af2pred (protein)
chain: SSSSSLEEVVERAKELAKEVTDQRVRFELRLLAFELERTGDPRLEELLERLIRLVEEALKGSSSS
B32: il2ra_site1_1z92_normal_mot_HHH_b1_00108_af2_000000035_0001_38_51_H_._753cdabf4d6139bcd7e966370e577bbb_0001_0001_0000300027_0000001_0_af2pred_0001_af2pred_1 (protein)
chain: SEEEELERKLKELGVPPAVVRNVVSLFLILKEQGASPESIEKILEKSAKVAKDPELERAIEIIIH
B33: il2ra_site1_3nfp_sap_15_mot_HHH_b1_00042_af2_000000196_0001_42_57_H_._HHH_b2_05531_0001_0000700045_0000001_0_0001_af2pred_0001_af2pred (protein)
chain: SSSSTRLREHLIRSAKRLAELLNDDEALRRIEKLEEEIEREGDPRLVQELFRLVEELIRRGSSSS
B34: il2ra_site1_2b5i_normal_mot_HHH_b1_06341_af2_000000029_0001_17_35_H_._HHH_b2_05139_af2_0001_0000300023_0000001_0_af2pred_dldesign_0_af2pred (protein)
chain: SSSSDEVYDEIDRLYTEALKLKRAGKKEEAKELLEKALELAQAANDEKAISQLTKLLESLSSSSS
B35: il2ra_site1_1z92_sap_20_mot_HHH_b1_07192_af2_000000222_0001_1_19_H_._HHH_b1_06866_af2_0001_0000100001_0000001_0_0001 (protein)
chain: SSSSDEEEEIKRLVREIVEELGLSEHTKEALERDAERDFELGLSERSIEMALRRAAERFLSSSSS
B36: il2ra_site2_3nfp_normal_mot_ems_3hM_287_af2_000000177_0001_46_64_H_._HHH_b2_05811_af2_0001_0000100005_0000001_0 (protein)
chain: SSSSSEEEAEERIEELLREAKEIPDPEERRRLIAEAAHLAVELNNFELFAAVTELLRELISSSSS
B37: il2ra_site2_3nfp_normal_mot_HHH_b1_01086_000000225_0001_20_36_H_._HHH_b2_07947_0001_0000100002_0000001_0_af2pred_0001_af2pred (protein)
chain: SSSSSSDEEEEVEELLEEAKHIDDPFERFAALADAARLALEAKNPELVRLVLELSAKLSSSSSSS

target: il2ra, P01589; assay: yeast display titration

Apparent Kd, inactive:
B1 no binding seen
B2 no binding seen
B3 no binding seen
B4 no binding seen
B5 no binding seen
B6 > 1.56 nM
B7 no binding seen
B8 no binding seen
B9 no binding seen
B10 no binding seen
B11 no binding seen
B12 no binding seen
B13 no binding seen
B14 no binding seen
B15 no binding seen
B16 no binding seen
B17 no binding seen
B18 no binding seen
B19 no binding seen
B20 no binding seen
B21 no binding seen
B22 no binding seen
B23 no binding seen
B24 no binding seen
B25 no binding seen
B26 no binding seen
B27 no binding seen
B28 no binding seen
B29 no binding seen
B30 no binding seen
B31 no binding seen
B32 no binding seen
B33 no binding seen
B34 no binding seen
B35 no binding seen
B36 no binding seen
B37 no binding seen

For convenience, some entries already given:
Apparent Kd, inactive:
B7 no binding seen
B8 no binding seen
